# Reference: the supplement of paper PMC4635364
# This is one part of the list. Single values are uncertain here, since repeats match poorly.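 ReNCell VM, a human fetal ventral-midbrain neural progenitor line, was differentiated without mitogens. Blinded raters scored images stained for doublecortin (early neurons) or tyrosine hydroxylase (dopaminergic neurons) against untreated wells (0 = no change). Scores were averaged across repeats and both raters, and compounds averaging 2 or more were selected as hits for retesting.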
# What was measured:
# ReNCell VM [1] = experiment: neuronal differentiation score (DCX+ cell fraction vs untreated, manual image score) (score (-3 to 3)); higher = more neuronal differentiation; conditions: 2 uM, 2 weeks
# ReNCell VM [2] = experiment: dopaminergic neuron differentiation score (TH+ cell fraction vs untreated, manual image score) (score (0 to 3)); higher = more TH+ dopaminergic neuron differentiation; conditions: 2 uM, 4 weeks, BDNF 10 ng/ml + GDNF 10 ng/ml
smiles,measurement,setting,value
CC(=O)OCC(=O)[C@@]1(O)CC[C@H]2[C@@H]3CCC4=CC(=O)C=C[C@]4(C)[C@@]3(Cl)[C@@H](Cl)C[C@@]21C,neuronal differentiation score,ReNCell VM [1]; library: Spectrum,inactive: 0
same,dopaminergic neuron differentiation score,ReNCell VM [2]; library: Spectrum,inactive: 0
Cc1cnc(C(=O)NCCc2ccc(S(=O)(=O)NC(=O)NC3CCCCC3)cc2)cn1,neuronal differentiation score,ReNCell VM [1]; library: Spectrum,inactive: 0
same,dopaminergic neuron differentiation score,ReNCell VM [2]; library: Spectrum,inactive: 0
CC[C@@H]1SC2(CCN(C)CC2)NC1=O,neuronal differentiation score,ReNCell VM [1]; library: LOPAC,inactive: 0
same,dopaminergic neuron differentiation score,ReNCell VM [2]; library: LOPAC,inactive: 1
CCC(=O)O[C@]1(C(=O)SCF)[C@H](C)C[C@H]2[C@@H]3C[C@H](F)C4=CC(=O)C=C[C@]4(C)[C@@]3(F)[C@@H](O)C[C@@]21C,neuronal differentiation score,ReNCell VM [1]; library: Spectrum,inactive: 0
same,dopaminergic neuron differentiation score,ReNCell VM [2]; library: Spectrum,inactive: 0
O=c1[nH]c2ccccc2c2ccccc12 [6(5H)-Phenanthridinone],neuronal differentiation score,ReNCell VM [1]; library: LOPAC,inactive: 0
same,dopaminergic neuron differentiation score,ReNCell VM [2]; library: LOPAC,inactive: 0
C[C@H](O)C(=O)Nc1c(I)c(C(=O)NC(CO)CO)c(I)c(C(=O)NC(CO)CO)c1I [Iopamidol],neuronal differentiation score,ReNCell VM [1]; library: Prestwick,inactive: 0
same,dopaminergic neuron differentiation score,ReNCell VM [2]; library: Prestwick,inactive: 0
O=C(/C=C/c1ccc(O)c(O)c1)O[C@@H]1C[C@](O)(C(=O)O)C[C@@H](O)[C@H]1O [Chlorogenic acid],neuronal differentiation score,ReNCell VM [1]; library: Phytochemical,inactive: 0
same,dopaminergic neuron differentiation score,ReNCell VM [2]; library: Phytochemical,inactive: 0
CNCC[C@H](Oc1cccc2ccccc12)c1cccs1,neuronal differentiation score,ReNCell VM [1]; library: Spectrum,inactive: 0
same,dopaminergic neuron differentiation score,ReNCell VM [2]; library: Spectrum,inactive: 0
OCC(O)CN1CCN(c2ccccc2)CC1 (stereo not drawn),neuronal differentiation score,ReNCell VM [1]; library: Spectrum,inactive: 0
same,dopaminergic neuron differentiation score,ReNCell VM [2]; library: Spectrum,inactive: 0
O=c1ccc2cc(O)c(O)cc2o1,neuronal differentiation score,ReNCell VM [1]; library: Spectrum,inactive: 0
same,dopaminergic neuron differentiation score,ReNCell VM [2]; library: Spectrum,inactive: 0
O=C(N[C@@H](Cc1ccccc1)C(=O)CCl)OCc1ccccc1 [Z-L-Phe chloromethyl ketone],neuronal differentiation score,ReNCell VM [1]; library: LOPAC,inactive: 0
same,dopaminergic neuron differentiation score,ReNCell VM [2]; library: LOPAC,inactive: 0
CC(=O)Oc1ccc(O)cc1,neuronal differentiation score,ReNCell VM [1]; library: Spectrum,inactive: 0
same,dopaminergic neuron differentiation score,ReNCell VM [2]; library: Spectrum,inactive: 0
O=C(CCCCCN1C(=O)c2cccc3cccc(c23)C1=O)NO [Scriptaid],neuronal differentiation score,ReNCell VM [1]; library: Tocriscreen,inactive: 0
same,dopaminergic neuron differentiation score,ReNCell VM [2]; library: Tocriscreen,inactive: 0
O=C(/C=C/c1ccccc1)c1ccc(O)cc1,neuronal differentiation score,ReNCell VM [1]; library: Spectrum,inactive: 0
same,dopaminergic neuron differentiation score,ReNCell VM [2]; library: Spectrum,inactive: 0
CC(=O)NS(=O)(=O)c1ccc(NC(=O)c2ccccc2C(=O)O)cc1,neuronal differentiation score,ReNCell VM [1]; library: Spectrum,inactive: 0
same,dopaminergic neuron differentiation score,ReNCell VM [2]; library: Spectrum,inactive: 0
O=C(OCc1ccccc1)c1ccccc1,neuronal differentiation score,ReNCell VM [1]; library: Spectrum,inactive: 0
same,dopaminergic neuron differentiation score,ReNCell VM [2]; library: Spectrum,inactive: 0
CC(C)CCCC(C)C1CCC2C3CCC4CCCCC4(C)C3CCC12C (stereo not drawn),neuronal differentiation score,ReNCell VM [1]; library: Spectrum,inactive: 0
same,dopaminergic neuron differentiation score,ReNCell VM [2]; library: Spectrum,inactive: 0
CN1C(CCl)Nc2cc(Cl)c(S(N)(=O)=O)cc2S1(=O)=O (stereo not drawn),neuronal differentiation score,ReNCell VM [1]; library: Spectrum,inactive: 0
same,dopaminergic neuron differentiation score,ReNCell VM [2]; library: Spectrum,inactive: 0
CC(S)C(=O)NCC(=O)O (stereo not drawn),neuronal differentiation score,ReNCell VM [1]; library: Spectrum,inactive: 0
same,dopaminergic neuron differentiation score,ReNCell VM [2]; library: Spectrum,inactive: 0
CCCOC(=O)c1c(-c2ccccc2)nc(CC)c(C(=O)SCC)c1CCC,neuronal differentiation score,ReNCell VM [1]; library: LOPAC,inactive: 0
same,dopaminergic neuron differentiation score,ReNCell VM [2]; library: LOPAC,inactive: 0
C/C=C1\C(=O)C[C@H]2[C@@H]3CCC4=CC(=O)CC[C@]4(C)[C@H]3CC[C@]12C [Guggulsterone],neuronal differentiation score,ReNCell VM [1]; library: Tocriscreen,inactive: 0
same,dopaminergic neuron differentiation score,ReNCell VM [2]; library: Tocriscreen,inactive: 0
Cc1cccc(Nc2ccncc2S(=O)(=O)NC(=O)NC(C)C)c1,neuronal differentiation score,ReNCell VM [1]; library: Spectrum,inactive: 0
same,dopaminergic neuron differentiation score,ReNCell VM [2]; library: Spectrum,inactive: 0
CN(C)/N=N/c1[nH]cnc1C(N)=O,neuronal differentiation score,ReNCell VM [1]; library: Spectrum,inactive: 0
same,dopaminergic neuron differentiation score,ReNCell VM [2]; library: Spectrum,inactive: 0
CC(C)(C)NC(=O)[C@H]1CC[C@H]2[C@@H]3CC[C@H]4NC(=O)C=C[C@]4(C)[C@H]3CC[C@]12C,neuronal differentiation score,ReNCell VM [1]; library: Spectrum,inactive: 0
same,dopaminergic neuron differentiation score,ReNCell VM [2]; library: Spectrum,inactive: 0
COc1ccc(C(=O)NCc2cccnc2)cc1C(=O)NCc1cccnc1 [Picotamide],neuronal differentiation score,ReNCell VM [1]; library: LOPAC,inactive: 1
same,dopaminergic neuron differentiation score,ReNCell VM [2]; library: LOPAC,inactive: 0
CC1=C(/C=C/C(C)=C/C=C/C(C)=C/C=C/C=C(C)/C=C/C=C(C)/C=C/C2=C(C)C(=O)[C@@H](O)CC2(C)C)C(C)(C)C[C@H](O)C1=O [Astaxanthin],neuronal differentiation score,ReNCell VM [1]; library: LOPAC,inactive: 0
same,dopaminergic neuron differentiation score,ReNCell VM [2]; library: LOPAC,inactive: 0
CCCc1nc(C(C)(C)O)c(C(=O)O)n1Cc1ccc(-c2ccccc2-c2nnn[nH]2)cc1,neuronal differentiation score,ReNCell VM [1]; library: Spectrum,inactive: 0
same,dopaminergic neuron differentiation score,ReNCell VM [2]; library: Spectrum,inactive: 0
Cc1cc(Cn2cnc3c2CC(C(=O)O)N(C(=O)C(c2ccccc2)c2ccccc2)C3)ccc1N(C)C (stereo not drawn),neuronal differentiation score,ReNCell VM [1]; library: Tocriscreen,inactive: 0
same,dopaminergic neuron differentiation score,ReNCell VM [2]; library: Tocriscreen,inactive: 0
N=C(NCCCCCCNC(=N)NC(=N)Nc1ccc(Cl)cc1)NC(=N)Nc1ccc(Cl)cc1 [Chlorhexidine],neuronal differentiation score,ReNCell VM [1]; library: Prestwick,inactive: 0
same,dopaminergic neuron differentiation score,ReNCell VM [2]; library: Prestwick,inactive: 0
Cc1c(N(C)C)c(=O)n(-c2ccccc2)n1C [Amidopyrine],neuronal differentiation score,ReNCell VM [1]; library: Prestwick,inactive: 0
same,dopaminergic neuron differentiation score,ReNCell VM [2]; library: Prestwick,inactive: 0
COc1cc(N)c(Cl)cc1C(=O)CCC1CCN(CCNS(C)(=O)=O)CC1,neuronal differentiation score,ReNCell VM [1]; library: Tocriscreen,inactive: 0
same,dopaminergic neuron differentiation score,ReNCell VM [2]; library: Tocriscreen,inactive: 0
CN1C(=O)CC[C@H]1c1cccnc1 [Cotinine (-)],neuronal differentiation score,ReNCell VM [1]; library: Phytochemical,inactive: 0
same,dopaminergic neuron differentiation score,ReNCell VM [2]; library: Phytochemical,inactive: 0
CC(N)(Cc1ccc(O)cc1)C(=O)O (racemic) [DL-alpha-Methyl-p-tyrosine],neuronal differentiation score,ReNCell VM [1]; library: LOPAC,inactive: 0
same,dopaminergic neuron differentiation score,ReNCell VM [2]; library: LOPAC,inactive: 0
CC(C)(O/N=C(\C(=O)N[C@@H]1C(=O)N2C(C(=O)[O-])=C(C[n+]3ccccc3)CS[C@H]12)c1csc(N)n1)C(=O)O,neuronal differentiation score,ReNCell VM [1]; library: Spectrum,inactive: 0
same,dopaminergic neuron differentiation score,ReNCell VM [2]; library: Spectrum,inactive: 0

# An excerpt of these results, with bars between the fields:
smiles | measurement | setting | value
Cc1cccc(Nc2ccncc2S(=O)(=O)NC(=O)NC(C)C)c1 | dopaminergic neuron differentiation score | ReNCell VM [2]; library: Spectrum | inactive: 0
CN(C)/N=N/c1[nH]cnc1C(N)=O | neuronal differentiation score | ReNCell VM [1]; library: Spectrum | inactive: 0
same | dopaminergic neuron differentiation score | ReNCell VM [2]; library: Spectrum | inactive: 0
CC(C)(C)NC(=O)[C@H]1CC[C@H]2[C@@H]3CC[C@H]4NC(=O)C=C[C@]4(C)[C@H]3CC[C@]12C | neuronal differentiation score | ReNCell VM [1]; library: Spectrum | inactive: 0
same | dopaminergic neuron differentiation score | ReNCell VM [2]; library: Spectrum | inactive: 0
COc1ccc(C(=O)NCc2cccnc2)cc1C(=O)NCc1cccnc1 [Picotamide] | neuronal differentiation score | ReNCell VM [1]; library: LOPAC | inactive: 1
same | dopaminergic neuron differentiation score | ReNCell VM [2]; library: LOPAC | inactive: 0
CC1=C(/C=C/C(C)=C/C=C/C(C)=C/C=C/C=C(C)/C=C/C=C(C)/C=C/C2=C(C)C(=O)[C@@H](O)CC2(C)C)C(C)(C)C[C@H](O)C1=O [Astaxanthin] | neuronal differentiation score | ReNCell VM [1]; library: LOPAC | inactive: 0
same | dopaminergic neuron differentiation score | ReNCell VM [2]; library: LOPAC | inactive: 0
CCCc1nc(C(C)(C)O)c(C(=O)O)n1Cc1ccc(-c2ccccc2-c2nnn[nH]2)cc1 | neuronal differentiation score | ReNCell VM [1]; library: Spectrum | inactive: 0
same | dopaminergic neuron differentiation score | ReNCell VM [2]; library: Spectrum | inactive: 0
Cc1cc(Cn2cnc3c2CC(C(=O)O)N(C(=O)C(c2ccccc2)c2ccccc2)C3)ccc1N(C)C (stereo not drawn) | neuronal differentiation score | ReNCell VM [1]; library: Tocriscreen | inactive: 0
same | dopaminergic neuron differentiation score | ReNCell VM [2]; library: Tocriscreen | inactive: 0
N=C(NCCCCCCNC(=N)NC(=N)Nc1ccc(Cl)cc1)NC(=N)Nc1ccc(Cl)cc1 [Chlorhexidine] | neuronal differentiation score | ReNCell VM [1]; library: Prestwick | inactive: 0
same | dopaminergic neuron differentiation score | ReNCell VM [2]; library: Prestwick | inactive: 0
Cc1c(N(C)C)c(=O)n(-c2ccccc2)n1C [Amidopyrine] | neuronal differentiation score | ReNCell VM [1]; library: Prestwick | inactive: 0
same | dopaminergic neuron differentiation score | ReNCell VM [2]; library: Prestwick | inactive: 0
COc1cc(N)c(Cl)cc1C(=O)CCC1CCN(CCNS(C)(=O)=O)CC1 | neuronal differentiation score | ReNCell VM [1]; library: Tocriscreen | inactive: 0
same | dopaminergic neuron differentiation score | ReNCell VM [2]; library: Tocriscreen | inactive: 0
CN1C(=O)CC[C@H]1c1cccnc1 [Cotinine (-)] | neuronal differentiation score | ReNCell VM [1]; library: Phytochemical | inactive: 0
